Laboratory results reported in patent US20220396788.
Construct, isoform or probe ends are uncertain for at least one entry.

Chains of the proteins cited; added tags and fusions are not shown. Lines headed by an entry give the natural chain unless they say otherwise; changes in a name come on top.
UniProt P07636: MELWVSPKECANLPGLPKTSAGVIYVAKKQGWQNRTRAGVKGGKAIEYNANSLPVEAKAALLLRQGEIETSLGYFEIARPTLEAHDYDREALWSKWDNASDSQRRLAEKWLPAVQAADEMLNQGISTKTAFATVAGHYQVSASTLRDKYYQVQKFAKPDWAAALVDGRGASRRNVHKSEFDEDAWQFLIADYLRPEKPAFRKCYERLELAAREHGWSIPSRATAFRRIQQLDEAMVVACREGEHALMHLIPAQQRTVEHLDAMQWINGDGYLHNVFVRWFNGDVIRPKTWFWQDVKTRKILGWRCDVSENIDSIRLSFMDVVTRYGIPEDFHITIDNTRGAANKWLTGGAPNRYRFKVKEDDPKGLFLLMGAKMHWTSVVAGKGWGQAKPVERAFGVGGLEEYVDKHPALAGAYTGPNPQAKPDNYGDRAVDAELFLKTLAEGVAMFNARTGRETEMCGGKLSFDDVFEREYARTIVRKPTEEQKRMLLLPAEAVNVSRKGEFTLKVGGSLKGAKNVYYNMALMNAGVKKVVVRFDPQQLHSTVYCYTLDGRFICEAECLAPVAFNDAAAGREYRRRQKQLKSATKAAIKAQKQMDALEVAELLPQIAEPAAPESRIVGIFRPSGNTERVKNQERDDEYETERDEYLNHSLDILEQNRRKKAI

Each sequence was assayed against MuA transposase (UniProt P07636) (assay: enzyme reaction in vitro). Details: DNA fragmentation; active; purified recombinant protein; variant of Mu-N0 transposon end (control).

Activity on this sequence, active:
TATTTCGACTCACTATTGAAACGCTTTCGCGTTTTTCGTGCGCCGCTTCA / CTAGTGAAGCGGCGCACGAAAAACGCGAAAGCGTTTCAATAGTGAGTCGAAATA [Tn-T7.8]
GTTTTCGCATTTATCGTGAAACGCTTTCGCGTATTACGTCTCACTATAGA / CTAGTCTATAGTGAGACGTAATACGCGAAAGCGTTTCACGATAAATGCGAAAAC [Tn-T7.6]
GTTTTCGCATTTATCGTGAAACGCTTTCGCGTTTTACGTCTCACTATAGA / CTAGTCTATAGTGAGACGTAAAACGCGAAAGCGTTTCACGATAAATGCGAAAAC [Tn-T7.7]

Same assay, conditions: DNA fragmentation; among best activity of T7 variants; purified recombinant protein; variant of Mu-N0 transposon end (control)

Activity on this sequence, active:
GTTTTCGCATTTAATATGACTCACTATAGCGTTTTTCGTGCGCCGCTTCA / CTAGTGAAGCGGCGCACGAAAAACGCTATAGTGAGTCATATTAAATGCGAAAAC [Tn-T7.3]
GTTTTCGCATTTAATACGACTCACTATAGCGTTTTTCGTGCGCCGCTTCA / CTAGTGAAGCGGCGCACGAAAAACGCTATAGTGAGTCGTATTAAATGCGAAAAC [Tn-T7.1]
GTTTTCGCATTTAATATGACTCACTTTAGCGTTTTTCGTGCGCCGCTTCA / CTAGTGAAGCGGCGCACGAAAAACGCTAAAGTGAGTCATATTAAATGCGAAAAC [Tn-T7.4]
